The values that follow come from patent US20160369115A1, “POLARIZING PLATE COMPOSITION, POLARIZING PLATE PROTECTIVE FILM, POLARIZER, POLARIZING PLATE, LIQUID CRYSTAL DISPLAY DEVICE, AND COMPOUND USED IN THE LIQUID CRYSTAL DISPLAY DEVICE” (FUJIFILM Corporation, priority 2014, published 2016).

Data set [1] is described as follows: Bleed-out properties in polarizer (haze evaluation). To be noted: haze of polarizing plate; additive in polarizer, added amount 1.0 per 100 parts by mass of polyvinyl alcohol resin.
The nature of data set [2]: Evaluation of durability of polarizing plate, additive in polarizer (Example 2). To be noted: added amount 1.0 per 100 parts by mass of polyvinyl alcohol resin, 410 nm.
A short description of data set [3]: Evaluation of durability of polarizing plate, additive in adhesive layer (Example 3). To be noted: added amount 10.0 per 100 parts by mass of the polyvinyl alcohol resin, film thickness 5 μm; for Durability of polarizer: amount of change of orthogonal transmittance (%) 60° C., 95%, 500 hours / Durability of polarizer: amount of change of orthogonal transmittance (%) 60° C., 95%, 1,000 hours / Durability of polarizer: amount of change of orthogonal transmittance (%) 80° C., Dry 500 hours / Durability of polarizer: amount of change of orthogonal transmittance (%) 80° C., Dry, 1,000 hours: 410 nm.

SMILES strings stand for the structures.

In the case of `CCOC(=O)Oc1c(Cc2ccccc2S(=O)(=O)[O-])c(=O)n(-c2ccccc2)c(=O)n1-c1ccccc1.[Na+]` [Example compound D], in data set [1], the Bleed out entry was “A (The haze was less than 0.3%.)”. Moreover, in data set [2], the “Durability of polarizer: amount of change of degree of polarization (%) 60° C., 95%, 500 hours” value is “A+ (The amount of change of the degree of polarization before and after the elapse of time was less than 0.05%.)”; the “Durability of polarizer: amount of change of degree of polarization (%) 60° C., 95%, 1,000 hours” value was “A+ (The amount of change of the degree of polarization before and after the elapse of time was less than 1.0%.)”; the “Durability of polarizer: amount of change of degree of polarization (%) 80° C., Dry, 500 hours” value was “A+ (The amount of change of the degree of polarization before and after the elapse of time was less than 0.05%.)”; the “Durability of polarizer: amount of change of degree of polarization (%) 80° C., Dry, 1,000 hours” value was “A+ (The amount of change of the degree of polarization before and after the elapse of time was less than 0.1%.)”. Moreover, in data set [2], the “Durability of polarizer: amount of change of orthogonal transmittance (%) 60° C., 95%, 500 hours” value is “A+ (The amount of change of the orthogonal transmittance before and after the elapse of time was less than 0.1%.)”; the “Durability of polarizer: amount of change of orthogonal transmittance (%) 60° C., 95%, 1,000 hours” value is “A+ (The amount of change of the orthogonal transmittance before and after the elapse of time was less than 0.5%.)”; the “Durability of polarizer: amount of change of orthogonal transmittance (%) 80° C., Dry 500 hours” value is “A+ (The amount of change of the orthogonal transmittance before and after the elapse of time was less than 0.05%.)”; the “Durability of polarizer: amount of change of orthogonal transmittance (%) 80° C., Dry, 1,000 hours” value was “A+ (The amount of change of the orthogonal transmittance before and after the elapse of time was less than 0.1%.)”. Moreover, in data set [3], the “Durability of polarizer: amount of change of degree of polarization (%) 60° C., 95%, 500 hours” value was “A+ (The amount of change of the degree of polarization before and after the elapse of time was less than 0.05%.)”; the “Durability of polarizer: amount of change of degree of polarization (%) 60° C., 95%, 1,000 hours” value was “A+ (The amount of change of the degree of polarization before and after the elapse of time was less than 1.0%.)”; the “Durability of polarizer: amount of change of degree of polarization (%) 80° C., Dry, 500 hours” value is “A+ (The amount of change of the degree of polarization before and after the elapse of time was less than 0.05%.)”; the “Durability of polarizer: amount of change of degree of polarization (%) 80° C., Dry, 1,000 hours” value was “A+ (The amount of change of the degree of polarization before and after the elapse of time was less than 0.1%.)”. In addition, in data set [3], the “Durability of polarizer: amount of change of orthogonal transmittance (%) 60° C., 95%, 500 hours” value was “A+ (The amount of change of the orthogonal transmittance before and after the elapse of time was less than 0.1%.)”; the “Durability of polarizer: amount of change of orthogonal transmittance (%) 60° C., 95%, 1,000 hours” value was “A+ (The amount of change of the orthogonal transmittance before and after the elapse of time was less than 0.5%.)”; the “Durability of polarizer: amount of change of orthogonal transmittance (%) 80° C., Dry 500 hours” value was “A+ (The amount of change of the orthogonal transmittance before and after the elapse of time was less than 0.05%.)”; the “Durability of polarizer: amount of change of orthogonal transmittance (%) 80° C., Dry, 1,000 hours” value was “A+ (The amount of change of the orthogonal transmittance before and after the elapse of time was less than 0.1%.)”.

Turning to `CC(C)[Si](Oc1c(Cc2ccccc2)c(=O)n(CS(=O)(=O)[O-])c(=O)n1C)(C(C)C)C(C)C.[Na+]` [Example compound L], the Bleed out result in data set [1] is “A (The haze was less than 0.3%.)”. For the same molecule, in data set [2], the “Durability of polarizer: amount of change of degree of polarization (%) 60° C., 95%, 500 hours” value is “A+ (The amount of change of the degree of polarization before and after the elapse of time was less than 0.05%.)”; the “Durability of polarizer: amount of change of degree of polarization (%) 60° C., 95%, 1,000 hours” value is “A+ (The amount of change of the degree of polarization before and after the elapse of time was less than 1.0%.)”; the “Durability of polarizer: amount of change of degree of polarization (%) 80° C., Dry, 500 hours” value is “A+ (The amount of change of the degree of polarization before and after the elapse of time was less than 0.05%.)”; the “Durability of polarizer: amount of change of degree of polarization (%) 80° C., Dry, 1,000 hours” value was “A+ (The amount of change of the degree of polarization before and after the elapse of time was less than 0.1%.)”. Further, in data set [2], the “Durability of polarizer: amount of change of orthogonal transmittance (%) 60° C., 95%, 500 hours” value is “A+ (The amount of change of the orthogonal transmittance before and after the elapse of time was less than 0.1%.)”; the “Durability of polarizer: amount of change of orthogonal transmittance (%) 60° C., 95%, 1,000 hours” value is “A+ (The amount of change of the orthogonal transmittance before and after the elapse of time was less than 0.5%.)”; the “Durability of polarizer: amount of change of orthogonal transmittance (%) 80° C., Dry 500 hours” value is “A+ (The amount of change of the orthogonal transmittance before and after the elapse of time was less than 0.05%.)”; the “Durability of polarizer: amount of change of orthogonal transmittance (%) 80° C., Dry, 1,000 hours” value is “A+ (The amount of change of the orthogonal transmittance before and after the elapse of time was less than 0.1%.)”. Moreover, in data set [3], the “Durability of polarizer: amount of change of degree of polarization (%) 60° C., 95%, 500 hours” value was “A+ (The amount of change of the degree of polarization before and after the elapse of time was less than 0.05%.)”; the “Durability of polarizer: amount of change of degree of polarization (%) 60° C., 95%, 1,000 hours” value is “A+ (The amount of change of the degree of polarization before and after the elapse of time was less than 1.0%.)”; the “Durability of polarizer: amount of change of degree of polarization (%) 80° C., Dry, 500 hours” value was “A+ (The amount of change of the degree of polarization before and after the elapse of time was less than 0.05%.)”; the “Durability of polarizer: amount of change of degree of polarization (%) 80° C., Dry, 1,000 hours” value is “A+ (The amount of change of the degree of polarization before and after the elapse of time was less than 0.1%.)”. Besides, in data set [3], the “Durability of polarizer: amount of change of orthogonal transmittance (%) 60° C., 95%, 500 hours” value was “A+ (The amount of change of the orthogonal transmittance before and after the elapse of time was less than 0.1%.)”; the “Durability of polarizer: amount of change of orthogonal transmittance (%) 60° C., 95%, 1,000 hours” value is “A+ (The amount of change of the orthogonal transmittance before and after the elapse of time was less than 0.5%.)”; the “Durability of polarizer: amount of change of orthogonal transmittance (%) 80° C., Dry 500 hours” value was “A+ (The amount of change of the orthogonal transmittance before and after the elapse of time was less than 0.05%.)”; the “Durability of polarizer: amount of change of orthogonal transmittance (%) 80° C., Dry, 1,000 hours” value is “A+ (The amount of change of the orthogonal transmittance before and after the elapse of time was less than 0.1%.)”.

On to `[Cl-].[Cl-].[Zn+2]` [ZnCl2, reference compound], for which the Bleed out entry in data set [1] is “A (The haze was less than 0.3%.)”. In addition, in data set [2], the “Durability of polarizer: amount of change of degree of polarization (%) 60° C., 95%, 500 hours” value is “B (The amount of change of the orthogonal transmittance before and after the elapse of time was equal to or greater than 2.0% and less than 3.0%.)”; the “Durability of polarizer: amount of change of degree of polarization (%) 60° C., 95%, 1,000 hours” value is “B (The amount of change of the degree of polarization before and after the elapse of time was equal to or greater than 4.0% and less than 6.0%.)”; the “Durability of polarizer: amount of change of degree of polarization (%) 80° C., Dry, 500 hours” value was “A (The amount of change of the degree of polarization before and after the elapse of time was equal to or greater than 0.05% and less than 1.0%.)”; the “Durability of polarizer: amount of change of degree of polarization (%) 80° C., Dry, 1,000 hours” value is “A (The amount of change of the degree of polarization before and after the elapse of time was equal to or greater than 0.1% and less than 2.0%.)”. In addition, in data set [2], the “Durability of polarizer: amount of change of orthogonal transmittance (%) 60° C., 95%, 500 hours” value is “B (The amount of change of the orthogonal transmittance before and after the elapse of time was equal to or greater than 0.4% and less than 0.8%.)”; the “Durability of polarizer: amount of change of orthogonal transmittance (%) 60° C., 95%, 1,000 hours” value is “B (The amount of change of the orthogonal transmittance before and after the elapse of time was equal to or greater than 1.0% and less than 1.6%.)”; the “Durability of polarizer: amount of change of orthogonal transmittance (%) 80° C., Dry 500 hours” value was “A (The amount of change of the orthogonal transmittance before and after the elapse of time was equal to or greater than 0.05% and less than 0.1%.)”; the “Durability of polarizer: amount of change of orthogonal transmittance (%) 80° C., Dry, 1,000 hours” value is “A (The amount of change of the orthogonal transmittance before and after the elapse of time was equal to or greater than 0.1% and less than 0.3%.)”. In data set [3], the “Durability of polarizer: amount of change of degree of polarization (%) 60° C., 95%, 500 hours” value was “B (The amount of change of the degree of polarization before and after the elapse of time was equal to or greater than 2.0% and less than 3.0%.)”; the “Durability of polarizer: amount of change of degree of polarization (%) 60° C., 95%, 1,000 hours” value is “B (The amount of change of the degree of polarization before and after the elapse of time was equal to or greater than 4.0% and less than 6.0%.)”; the “Durability of polarizer: amount of change of degree of polarization (%) 80° C., Dry, 500 hours” value was “A (The amount of change of the degree of polarization before and alter the elapse of time was equal to or greater than 0.05% and less than 1.0%.)”; the “Durability of polarizer: amount of change of degree of polarization (%) 80° C., Dry, 1,000 hours” value was “A (The amount of change of the degree of polarization before and after the elapse of time was equal to or greater than 0.1% and less than 2.0%.)”. In addition, in data set [3], the “Durability of polarizer: amount of change of orthogonal transmittance (%) 60° C., 95%, 500 hours” value was “B (The amount of change of the orthogonal transmittance before and after the elapse of time was equal to or greater than 0.4% and less than 0.8%.)”; the “Durability of polarizer: amount of change of orthogonal transmittance (%) 60° C., 95%, 1,000 hours” value is “B (The amount of change of the orthogonal transmittance before and after the elapse of time was equal to or greater than 1.0% and less than 1.6%.)”; the “Durability of polarizer: amount of change of orthogonal transmittance (%) 80° C., Dry 500 hours” value was “A (The amount of change of the orthogonal transmittance before and after the elapse of time was equal to or greater than 0.05% and less than 0.1%.)”; the “Durability of polarizer: amount of change of orthogonal transmittance (%) 80° C., Dry, 1,000 hours” value is “A (The amount of change of the orthogonal transmittance before and after the elapse of time was equal to or greater than 0.1% and less than 0.3%.)”.
